{"source": "paper PMC7819943", "about": "“Rice protein-binding microarrays: a tool to detect cis-acting elements near promoter regions in rice”", "note": "This is one part of the list.", "data": [{"target": "T1, OsSMF1 (Oryza sativa, UniProt Q6ZLB0 1-436)", "T1 sequence": "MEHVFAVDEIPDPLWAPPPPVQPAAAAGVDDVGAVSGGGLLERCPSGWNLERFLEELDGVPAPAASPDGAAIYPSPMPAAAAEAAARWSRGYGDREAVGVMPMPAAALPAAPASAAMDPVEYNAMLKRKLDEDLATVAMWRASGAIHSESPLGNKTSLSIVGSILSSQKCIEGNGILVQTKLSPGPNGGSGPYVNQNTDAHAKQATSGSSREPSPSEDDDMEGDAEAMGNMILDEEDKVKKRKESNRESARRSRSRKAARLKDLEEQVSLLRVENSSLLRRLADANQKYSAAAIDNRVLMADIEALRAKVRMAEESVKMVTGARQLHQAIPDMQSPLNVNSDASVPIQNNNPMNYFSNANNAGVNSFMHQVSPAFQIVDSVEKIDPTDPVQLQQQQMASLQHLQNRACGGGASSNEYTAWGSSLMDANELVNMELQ", "test": "protein-binding microarray (RPBM); PBS, 2% BSA, 51.3 ng/ul salmon testes DNA, 50 uM zinc acetate, 200 nM TF, 25 C, 1 h; high values mean tight binding", "conditions": "protein: recombinant; tags: N-terminal polyhistidine and DsRed monomer fusion (pET32a); chain copies: 2; label: CyDye5-dUTP incorporated in the synthesized complementary strand; 3' TTTTT single-stranded linker to array surface; dsDNA, one strand shown", "how_it_was_run": "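In PBS with 2% BSA, salmon testes DNA and 50 µM zinc acetate, 200 nM protein was incubated on a custom Agilent array at 25 °C for 1 h and then washed off. The array had been made double-stranded by primer extension with Cy5-dUTP and blocked with 2% BSA. The proteins were transcription factors fused N-terminally to polyhistidine and DsRed, expressed in E. coli BL21-CodonPlus and purified on Ni–NTA. The binding signal is per-feature fluorescence intensity (arbitrary units) from an Axon 4000B scanner.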", "values": [{"sequence": "TGAACTTGTGATTGGATCAGGTGTTGACCATGGGAGATTACGGAGTCACCTAGTGCAG", "binding signal": "14300 fluorescence intensity (a.u.)"}, {"sequence": "CAACCATGGCGTCATCCTCTTCCTCCTCCTCCTCCTCCTCCGGAGTCACCTAGTGCAG", "binding signal": "5800 fluorescence intensity (a.u.)"}, {"sequence": "CCTCCCCTTCCGTCTCTCCGCGCTCCAGCTCCACGCCAATCGGAGTCACCTAGTGCAG", "binding signal": "4310 fluorescence intensity (a.u.)"}, {"sequence": "CCAGTTGAGTTTTGCCTGTGGAGTGGAGCTGAAGCCCCGCCGGAGTCACCTAGTGCAG", "binding signal": "16300 fluorescence intensity (a.u.)"}, {"sequence": "TGTTGTTGGTTCCCTCTCCACGGCGACCTCATTGCCTCTCCGGAGTCACCTAGTGCAG", "binding signal": "3320 fluorescence intensity (a.u.)"}, {"sequence": "ACCCGATCCATTGCACATTTGCACTCAACTGTTTCGCCCTCGGAGTCACCTAGTGCAG", "binding signal": "3530 fluorescence intensity (a.u.)"}, {"sequence": "CACCCGCGTGTATGCCAGCTAGGCTTGGCTCCGACGTGGACGGAGTCACCTAGTGCAG", "binding signal": "4790 fluorescence intensity (a.u.)"}, {"sequence": "ATTGAGCTACCAGCAGCCTGCAGGCAGGCAGGCAGGTAGGCGGAGTCACCTAGTGCAG", "binding signal": "28200 fluorescence intensity (a.u.)"}, {"sequence": "AAAGGCACAGCAGGATGAAGATCTTGAAATGTTTCTTTGGCGGAGTCACCTAGTGCAG", "binding signal": "6510 fluorescence intensity (a.u.)"}, {"sequence": "GAGTGAGTAGCTCTTTGACGCGGAAGACGTGTAAAAGTATCGGAGTCACCTAGTGCAG", "binding signal": "5060 fluorescence intensity (a.u.)"}, {"sequence": "CGGTCCTCCTCGTCCGTGTTGTCGAGGCGGGGTAGAGGGGCGGAGTCACCTAGTGCAG", "binding signal": "3250 fluorescence intensity (a.u.)"}, {"sequence": "TGTCGGTCGGGCGGCCGCGCGCGCGGCCACGTACACGGCGCGGAGTCACCTAGTGCAG", "binding signal": "4770 fluorescence intensity (a.u.)"}, {"sequence": "CCTGACCCACATGCCATTGACTCATGTGGGTCCTACATGTCGGAGTCACCTAGTGCAG", "binding signal": "5910 fluorescence intensity (a.u.)"}, {"sequence": "CCTCCACTGGCGCATCCGACGTGGTCTCGGCAAAGTTCGACGGAGTCACCTAGTGCAG", "binding signal": "6920 fluorescence intensity (a.u.)"}, {"sequence": "GACTCAGCACAAACTGACTAGAGTCAAAGCGCCACGTCGTCGGAGTCACCTAGTGCAG", "binding signal": "7590 fluorescence intensity (a.u.)"}, {"sequence": "ACCCTATGAAAACTTCGTTTCGAGGCTGCACGTTTGCAATCGGAGTCACCTAGTGCAG", "binding signal": "3500 fluorescence intensity (a.u.)"}, {"sequence": "AATCACAGCACCATCGATTTGATGCCAACTCACATGTTACCGGAGTCACCTAGTGCAG", "binding signal": "5480 fluorescence intensity (a.u.)"}, {"sequence": "CCGAGATAATTACGTTGACTGACACATGGGGTCCAATCCACGGAGTCACCTAGTGCAG", "binding signal": "3640 fluorescence intensity (a.u.)"}, {"sequence": "ATCTAAATCTTTTGGCCACGCAAGAGGCTGGCGTGGCCAACGGAGTCACCTAGTGCAG", "binding signal": "4640 fluorescence intensity (a.u.)"}, {"sequence": "CGCCATGGGCGAGGCGGTGAAGGGGCCAGTGGTGGTGACGCGGAGTCACCTAGTGCAG", "binding signal": "4250 fluorescence intensity (a.u.)"}, {"sequence": "CGGGGTGGGTGTGGAAGACTGCACACGTTGTACTACAACCCGGAGTCACCTAGTGCAG", "binding signal": "4030 fluorescence intensity (a.u.)"}, {"sequence": "GATTCGTCTCGCGATTTCCATTCAAACTGTGCAATTAGTTCGGAGTCACCTAGTGCAG", "binding signal": "28000 fluorescence intensity (a.u.)"}, {"sequence": "TAACATCTCTTCGCTGCCATTAGAGAAAATACACGAATGACGGAGTCACCTAGTGCAG", "binding signal": "4350 fluorescence intensity (a.u.)"}, {"sequence": "AAGAAAGTTTCATTTTCTAATAATGTATCCTAATTCGAGACGGAGTCACCTAGTGCAG", "binding signal": "22700 fluorescence intensity (a.u.)"}, {"sequence": "GTGATCGGCCGCATTGCTTGCGTGGTGGCACACCGTCAGCCGGAGTCACCTAGTGCAG", "binding signal": "6710 fluorescence intensity (a.u.)"}, {"sequence": "CAGGCTAGCCCAAAGCTCTACACGTCCTAACTCCAAGCCACGGAGTCACCTAGTGCAG", "binding signal": "3900 fluorescence intensity (a.u.)"}, {"sequence": "TTTGAGCCTAATTAATTCATGATTAGCCATAAGTACTGCTCGGAGTCACCTAGTGCAG", "binding signal": "20000 fluorescence intensity (a.u.)"}, {"sequence": "ACCACATCCACTGCCGCGCCACGCCTCTCGGCCGCCACACCGGAGTCACCTAGTGCAG", "binding signal": "3770 fluorescence intensity (a.u.)"}, {"sequence": "GTGCATAGGGTTTCCGACTGGAATTGGGTTGGAGGGGCTTCGGAGTCACCTAGTGCAG", "binding signal": "3160 fluorescence intensity (a.u.)"}, {"sequence": "TTCTCTTCCAAAGGAAATGTATAAATCCACCATTAACTTTCGGAGTCACCTAGTGCAG", "binding signal": "19900 fluorescence intensity (a.u.)"}, {"sequence": "ACACCGAGAGCAGAGAGAAAATTCACCGGCACGCCGGAGACGGAGTCACCTAGTGCAG", "binding signal": "33400 fluorescence intensity (a.u.)"}, {"sequence": "AAGGAAAGCAAATTTGTGACATTGAGCTAGGTGGTTCAGACGGAGTCACCTAGTGCAG", "binding signal": "3240 fluorescence intensity (a.u.)"}, {"sequence": "GCATCCCTATCGCAGAAGTCAAACCGGGCGGGGCCCATTCCGGAGTCACCTAGTGCAG", "binding signal": "29000 fluorescence intensity (a.u.)"}, {"sequence": "GGGGTCGATGTGCCCCAAGCATAGCCATTAGGGGCTGCACCGGAGTCACCTAGTGCAG", "binding signal": "3150 fluorescence intensity (a.u.)"}, {"sequence": "CACTCTGCAGCTCTGCTCGTTTTGCACACGGGTGACTCGTCGGAGTCACCTAGTGCAG", "binding signal": "3280 fluorescence intensity (a.u.)"}, {"sequence": "ATATAAAATTATAACCATATAAAACTAAATTGAAATATCACGGAGTCACCTAGTGCAG", "binding signal": "25800 fluorescence intensity (a.u.)"}, {"sequence": "CCTCCTGTTGCAGTTGCAGAGTACAGCAGCAGCATCAGCACGGAGTCACCTAGTGCAG", "binding signal": "3560 fluorescence intensity (a.u.)"}, {"sequence": "TGATGATTGTTAGTGGATGATGATGTGGCATATTTGCATGCGGAGTCACCTAGTGCAG", "binding signal": "24600 fluorescence intensity (a.u.)"}, {"sequence": "CAGATGGGGAACGTGGAAATGCTGCTGGGGATGGATGGCTCGGAGTCACCTAGTGCAG", "binding signal": "3790 fluorescence intensity (a.u.)"}, {"sequence": "AATTGGTTTCAGGTCGCGTTGGCATTGAGCATGCGTAAGCCGGAGTCACCTAGTGCAG", "binding signal": "3260 fluorescence intensity (a.u.)"}, {"sequence": "CTTTTGGGCCCACGTGGGCCATTTTGCCTCCGTTTTGGGCCGGAGTCACCTAGTGCAG", "binding signal": "6620 fluorescence intensity (a.u.)"}, {"sequence": "TACCGCCTCAACGTCGGCGGCGCCTACATCCCGCCGTCCACGGAGTCACCTAGTGCAG", "binding signal": "3710 fluorescence intensity (a.u.)"}]}]}
